# Source: the supplement of paper PMC12819154, “High-throughput peptide-centric local stability assay extends protein–ligand identification to membrane proteins, tissues and bacteria” (Nature Structural & Molecular Biology, 2025)
# Amino acid sequences for entries named in this document (tags omitted). A change or cut given only in a name is not applied to a line headed by its entry.
# UniProt P15975: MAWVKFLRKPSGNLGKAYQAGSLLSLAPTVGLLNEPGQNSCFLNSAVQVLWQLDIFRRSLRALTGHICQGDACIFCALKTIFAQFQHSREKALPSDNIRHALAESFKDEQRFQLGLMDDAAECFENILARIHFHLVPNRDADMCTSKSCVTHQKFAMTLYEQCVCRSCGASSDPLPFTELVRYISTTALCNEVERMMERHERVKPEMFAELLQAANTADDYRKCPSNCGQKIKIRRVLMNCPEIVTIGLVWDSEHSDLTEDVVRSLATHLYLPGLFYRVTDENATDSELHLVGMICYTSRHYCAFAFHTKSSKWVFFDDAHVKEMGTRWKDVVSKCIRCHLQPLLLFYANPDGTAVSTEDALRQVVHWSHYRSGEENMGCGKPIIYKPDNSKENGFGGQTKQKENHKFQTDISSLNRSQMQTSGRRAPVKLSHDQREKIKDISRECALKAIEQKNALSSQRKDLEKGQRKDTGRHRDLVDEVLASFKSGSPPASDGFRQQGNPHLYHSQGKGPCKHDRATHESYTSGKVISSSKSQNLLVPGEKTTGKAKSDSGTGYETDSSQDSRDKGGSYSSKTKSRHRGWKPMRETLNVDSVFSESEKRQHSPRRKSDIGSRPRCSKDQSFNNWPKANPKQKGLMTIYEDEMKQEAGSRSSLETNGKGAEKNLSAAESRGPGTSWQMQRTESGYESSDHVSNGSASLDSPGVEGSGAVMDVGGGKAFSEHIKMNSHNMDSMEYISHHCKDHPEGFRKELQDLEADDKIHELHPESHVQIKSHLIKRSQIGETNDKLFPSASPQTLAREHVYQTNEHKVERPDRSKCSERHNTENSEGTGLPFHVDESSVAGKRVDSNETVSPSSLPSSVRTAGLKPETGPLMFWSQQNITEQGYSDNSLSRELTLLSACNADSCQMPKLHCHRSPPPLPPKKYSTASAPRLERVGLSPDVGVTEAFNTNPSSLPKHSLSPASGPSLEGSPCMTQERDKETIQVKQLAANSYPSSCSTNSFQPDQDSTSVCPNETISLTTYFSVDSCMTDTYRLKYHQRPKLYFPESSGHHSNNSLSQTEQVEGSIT
# UniProt P26638: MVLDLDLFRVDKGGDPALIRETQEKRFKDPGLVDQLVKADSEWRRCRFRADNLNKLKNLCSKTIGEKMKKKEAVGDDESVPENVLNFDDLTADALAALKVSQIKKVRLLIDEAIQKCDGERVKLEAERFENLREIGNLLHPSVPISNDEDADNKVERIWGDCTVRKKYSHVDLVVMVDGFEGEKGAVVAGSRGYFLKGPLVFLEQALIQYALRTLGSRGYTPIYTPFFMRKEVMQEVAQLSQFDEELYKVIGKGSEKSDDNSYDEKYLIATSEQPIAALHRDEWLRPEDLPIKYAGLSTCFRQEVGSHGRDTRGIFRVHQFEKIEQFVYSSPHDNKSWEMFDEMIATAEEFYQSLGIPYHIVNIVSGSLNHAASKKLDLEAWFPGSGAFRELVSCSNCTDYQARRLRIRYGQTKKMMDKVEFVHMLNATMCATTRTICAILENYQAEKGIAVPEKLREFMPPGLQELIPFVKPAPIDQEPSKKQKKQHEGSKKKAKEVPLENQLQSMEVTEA
# UniProt P25916: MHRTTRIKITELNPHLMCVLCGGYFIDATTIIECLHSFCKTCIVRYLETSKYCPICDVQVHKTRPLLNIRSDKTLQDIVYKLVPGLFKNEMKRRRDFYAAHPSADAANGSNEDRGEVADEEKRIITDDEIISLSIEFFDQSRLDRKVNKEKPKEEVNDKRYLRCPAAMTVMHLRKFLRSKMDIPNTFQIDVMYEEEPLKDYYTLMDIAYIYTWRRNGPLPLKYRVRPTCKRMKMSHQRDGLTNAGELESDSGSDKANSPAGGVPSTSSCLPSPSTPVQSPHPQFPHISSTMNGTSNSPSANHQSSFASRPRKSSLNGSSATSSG
# UniProt P35288: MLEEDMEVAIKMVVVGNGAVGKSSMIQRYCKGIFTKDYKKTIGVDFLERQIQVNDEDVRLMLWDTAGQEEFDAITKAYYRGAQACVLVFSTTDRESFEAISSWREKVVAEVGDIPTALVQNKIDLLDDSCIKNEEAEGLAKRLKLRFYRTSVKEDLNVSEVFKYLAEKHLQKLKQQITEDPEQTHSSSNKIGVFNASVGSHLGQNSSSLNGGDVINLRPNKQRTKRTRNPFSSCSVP
# UniProt P22892: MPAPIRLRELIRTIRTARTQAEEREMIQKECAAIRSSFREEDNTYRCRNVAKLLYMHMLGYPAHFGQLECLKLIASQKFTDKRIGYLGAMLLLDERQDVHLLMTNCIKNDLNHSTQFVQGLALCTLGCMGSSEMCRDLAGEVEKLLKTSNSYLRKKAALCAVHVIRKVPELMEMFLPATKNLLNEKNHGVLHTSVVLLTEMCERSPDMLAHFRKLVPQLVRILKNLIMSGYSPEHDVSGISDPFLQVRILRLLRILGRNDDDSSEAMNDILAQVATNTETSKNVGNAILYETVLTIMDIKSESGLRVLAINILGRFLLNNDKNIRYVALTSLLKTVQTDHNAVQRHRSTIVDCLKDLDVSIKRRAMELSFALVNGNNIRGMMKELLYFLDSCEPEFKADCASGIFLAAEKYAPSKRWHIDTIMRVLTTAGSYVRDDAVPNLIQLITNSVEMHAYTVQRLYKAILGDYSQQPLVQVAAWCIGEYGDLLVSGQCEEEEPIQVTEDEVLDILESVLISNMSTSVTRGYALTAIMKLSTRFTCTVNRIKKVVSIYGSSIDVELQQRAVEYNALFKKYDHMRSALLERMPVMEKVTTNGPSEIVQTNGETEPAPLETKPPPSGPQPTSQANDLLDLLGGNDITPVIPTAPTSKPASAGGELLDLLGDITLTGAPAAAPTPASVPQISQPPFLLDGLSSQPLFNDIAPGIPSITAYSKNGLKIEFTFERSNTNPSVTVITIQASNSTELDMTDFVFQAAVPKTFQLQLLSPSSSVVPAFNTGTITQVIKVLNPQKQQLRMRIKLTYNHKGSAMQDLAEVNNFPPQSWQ
# UniProt P17047: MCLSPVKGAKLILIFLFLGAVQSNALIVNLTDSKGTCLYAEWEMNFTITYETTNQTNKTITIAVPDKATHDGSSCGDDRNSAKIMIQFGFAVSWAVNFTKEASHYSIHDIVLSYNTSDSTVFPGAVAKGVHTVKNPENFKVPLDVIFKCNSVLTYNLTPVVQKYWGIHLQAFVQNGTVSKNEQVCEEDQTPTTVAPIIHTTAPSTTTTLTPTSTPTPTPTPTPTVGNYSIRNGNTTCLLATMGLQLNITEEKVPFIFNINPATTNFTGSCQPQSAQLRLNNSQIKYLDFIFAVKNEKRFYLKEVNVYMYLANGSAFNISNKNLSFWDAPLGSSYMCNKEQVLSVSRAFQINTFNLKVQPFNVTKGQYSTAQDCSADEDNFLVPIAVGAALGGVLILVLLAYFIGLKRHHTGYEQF
# UniProt P16382: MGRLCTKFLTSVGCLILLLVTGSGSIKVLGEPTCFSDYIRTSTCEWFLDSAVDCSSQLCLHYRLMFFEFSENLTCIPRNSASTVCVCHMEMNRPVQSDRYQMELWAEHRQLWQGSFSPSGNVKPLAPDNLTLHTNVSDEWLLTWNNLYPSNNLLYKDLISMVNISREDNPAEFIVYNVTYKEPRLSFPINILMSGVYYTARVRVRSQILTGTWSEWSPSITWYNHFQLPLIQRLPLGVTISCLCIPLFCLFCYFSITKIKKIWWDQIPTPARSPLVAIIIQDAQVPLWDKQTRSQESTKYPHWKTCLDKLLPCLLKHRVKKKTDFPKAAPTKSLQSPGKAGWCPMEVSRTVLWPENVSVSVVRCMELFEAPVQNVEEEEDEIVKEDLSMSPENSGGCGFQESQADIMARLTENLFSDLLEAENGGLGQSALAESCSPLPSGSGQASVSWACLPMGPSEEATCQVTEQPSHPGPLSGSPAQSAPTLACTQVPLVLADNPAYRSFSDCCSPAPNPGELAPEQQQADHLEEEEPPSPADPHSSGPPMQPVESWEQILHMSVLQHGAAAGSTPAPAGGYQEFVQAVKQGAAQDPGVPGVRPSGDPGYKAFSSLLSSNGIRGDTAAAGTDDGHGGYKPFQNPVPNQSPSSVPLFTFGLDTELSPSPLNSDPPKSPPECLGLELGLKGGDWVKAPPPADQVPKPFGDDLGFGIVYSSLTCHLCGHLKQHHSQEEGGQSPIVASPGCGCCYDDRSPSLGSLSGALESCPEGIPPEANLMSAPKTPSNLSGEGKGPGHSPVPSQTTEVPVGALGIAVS
# UniProt P21570: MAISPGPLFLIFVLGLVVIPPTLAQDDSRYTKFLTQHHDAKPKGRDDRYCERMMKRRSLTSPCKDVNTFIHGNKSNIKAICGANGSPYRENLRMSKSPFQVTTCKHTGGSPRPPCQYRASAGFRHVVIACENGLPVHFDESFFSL
# UniProt P27889, whole entry: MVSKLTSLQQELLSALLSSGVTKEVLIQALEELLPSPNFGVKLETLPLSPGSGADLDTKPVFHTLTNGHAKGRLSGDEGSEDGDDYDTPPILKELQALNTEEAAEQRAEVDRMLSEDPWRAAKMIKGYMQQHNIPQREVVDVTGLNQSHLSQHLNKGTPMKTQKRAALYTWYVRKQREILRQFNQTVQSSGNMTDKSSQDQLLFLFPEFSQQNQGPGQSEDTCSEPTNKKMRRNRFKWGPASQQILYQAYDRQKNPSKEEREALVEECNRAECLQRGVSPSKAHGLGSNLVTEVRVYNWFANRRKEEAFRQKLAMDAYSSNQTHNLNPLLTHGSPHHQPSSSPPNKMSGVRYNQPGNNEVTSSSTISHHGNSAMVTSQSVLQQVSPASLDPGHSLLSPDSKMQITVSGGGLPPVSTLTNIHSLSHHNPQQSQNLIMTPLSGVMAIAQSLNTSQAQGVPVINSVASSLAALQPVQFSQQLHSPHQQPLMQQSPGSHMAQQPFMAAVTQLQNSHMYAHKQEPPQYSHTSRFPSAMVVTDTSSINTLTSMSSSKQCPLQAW
# UniProt P35279: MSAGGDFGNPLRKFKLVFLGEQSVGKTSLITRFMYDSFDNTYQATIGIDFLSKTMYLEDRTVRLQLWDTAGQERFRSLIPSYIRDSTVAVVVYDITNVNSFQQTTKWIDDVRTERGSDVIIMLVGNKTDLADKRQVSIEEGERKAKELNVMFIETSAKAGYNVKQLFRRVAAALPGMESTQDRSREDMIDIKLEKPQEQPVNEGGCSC
# UniProt P26450, whole entry: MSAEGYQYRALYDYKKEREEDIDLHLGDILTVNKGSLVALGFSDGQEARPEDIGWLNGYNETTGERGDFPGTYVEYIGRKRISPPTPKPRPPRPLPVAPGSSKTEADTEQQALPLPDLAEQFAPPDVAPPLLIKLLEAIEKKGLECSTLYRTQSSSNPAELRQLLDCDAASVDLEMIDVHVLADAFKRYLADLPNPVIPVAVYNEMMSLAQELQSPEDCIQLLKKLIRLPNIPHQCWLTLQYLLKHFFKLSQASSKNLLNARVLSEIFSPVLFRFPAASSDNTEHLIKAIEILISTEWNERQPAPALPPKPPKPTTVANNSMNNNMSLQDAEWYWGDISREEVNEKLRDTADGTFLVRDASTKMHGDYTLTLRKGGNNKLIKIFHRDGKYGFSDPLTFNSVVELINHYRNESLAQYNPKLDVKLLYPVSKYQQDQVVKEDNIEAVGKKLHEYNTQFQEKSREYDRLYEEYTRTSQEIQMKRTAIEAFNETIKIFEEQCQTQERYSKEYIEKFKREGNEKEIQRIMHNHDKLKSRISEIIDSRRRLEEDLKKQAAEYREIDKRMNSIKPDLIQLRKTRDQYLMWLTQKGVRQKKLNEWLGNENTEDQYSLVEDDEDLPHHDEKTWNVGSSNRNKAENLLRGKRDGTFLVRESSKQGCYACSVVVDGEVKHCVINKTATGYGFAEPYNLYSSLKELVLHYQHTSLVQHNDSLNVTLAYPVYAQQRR
# UniProt P16054: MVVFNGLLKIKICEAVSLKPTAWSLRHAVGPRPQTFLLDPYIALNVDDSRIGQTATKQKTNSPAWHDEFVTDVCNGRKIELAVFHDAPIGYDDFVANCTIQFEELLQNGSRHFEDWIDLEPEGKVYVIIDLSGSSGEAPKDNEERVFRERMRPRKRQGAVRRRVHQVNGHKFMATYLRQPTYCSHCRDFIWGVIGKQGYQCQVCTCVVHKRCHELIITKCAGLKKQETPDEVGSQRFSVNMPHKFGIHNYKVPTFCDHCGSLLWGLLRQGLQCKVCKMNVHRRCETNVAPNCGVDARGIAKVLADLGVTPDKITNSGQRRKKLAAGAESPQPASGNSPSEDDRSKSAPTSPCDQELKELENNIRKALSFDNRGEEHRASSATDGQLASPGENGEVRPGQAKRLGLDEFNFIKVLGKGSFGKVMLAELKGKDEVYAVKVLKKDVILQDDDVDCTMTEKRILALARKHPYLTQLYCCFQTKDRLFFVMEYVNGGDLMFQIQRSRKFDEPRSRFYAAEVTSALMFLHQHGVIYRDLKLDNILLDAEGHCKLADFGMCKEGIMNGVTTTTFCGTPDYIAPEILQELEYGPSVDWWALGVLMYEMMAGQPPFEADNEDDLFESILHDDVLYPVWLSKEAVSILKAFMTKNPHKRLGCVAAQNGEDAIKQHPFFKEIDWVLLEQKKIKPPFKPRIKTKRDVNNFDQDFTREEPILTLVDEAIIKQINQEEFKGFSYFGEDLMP
# The other results are listed elsewhere or left out. Most values lie at the level of the controls, where differences are scatter.
# Compound: CN[C@@H]1C[C@H]2O[C@@](C)([C@@H]1OC)n1c3ccccc3c3c4c(c5c6ccccc6n2c5c31)C(=O)NC4 [staurosporine]
# Assay: log2 fold change of tryptic peptide abundance, ligand vs vehicle (limited proteolysis) (log2 ratio); higher = more trypsin-susceptible (destabilized)
# Conditions: ligand concentration: 20 uM; sample: mouse liver crude lysate; replicate design: treated separately
row,Target,log2 fold change
1,"UniProt P17427 (peptide sequence: ILVAGDTMDSVK, peptide start residue: 154)",-0.765
2,"UniProt P15975 (peptide sequence: EHVYQTNEHKVERPDR, peptide start residue: 801)",0.441
3,"UniProt P18581 (peptide sequence: NLSLPFILHEKTSEC, peptide start residue: 643)",-0.19
4,"UniProt P17012 (peptide sequence: HFSHAGALFTHK, peptide start residue: 490)",0.366
5,"UniProt P26638 (peptide sequence: VLDLDLFRVDK, peptide start residue: 2)",0.272
6,"UniProt P32921 (peptide sequence: KDYTSGAMLTGELKK, peptide start residue: 422)",0.173
7,"UniProt P25916 (peptide sequence: CPAAMTVMHLR, peptide start residue: 164)",0.443
8,"UniProt P25322 (peptide sequence: TTHFLSR, peptide start residue: 229)",-0.18
9,"UniProt P35288 (peptide sequence: QIQVNDEDVR, peptide start residue: 50)",0.32
10,"UniProt P22892 (peptide sequence: YVALTSLLK, peptide start residue: 326)",-0.609
11,"UniProt P26043 (peptide sequence: ELEEQTR, peptide start residue: 364)",-0.193
12,"UniProt P28033 (peptide sequence: VLELTAENER, peptide start residue: 254)",-0.169
13,"UniProt P17047 (peptide sequence: HHTGYEQF, peptide start residue: 408)",0.0732
14,"UniProt P16382 (peptide sequence: AGWCPMEVSR, peptide start residue: 340)",-0.256
15,"UniProt P18337 (peptide sequence: EIEYLENTLPK, peptide start residue: 72)",0.214
16,"UniProt P21570 (peptide sequence: FLTQHHDAKPK, peptide start residue: 33)",0.443

row,Target,log2 fold change
1,"UniProt P27889 (peptide sequence: EALVEECNRAECLQR, peptide start residue: 262)",-0.0926
2,"UniProt P25206 (peptide sequence: SVHYCPATKK, peptide start residue: 144)",0.735
3,"UniProt P35279 (peptide sequence: SLIPSYIR, peptide start residue: 77)",-0.101
4,"UniProt P33766 (peptide sequence: LIHSLPASLER, peptide start residue: 323)",0.092
5,"UniProt P26928 (peptide sequence: WDAQSPHQHR, peptide start residue: 316)",-0.375
6,"UniProt P23591 (peptide sequence: MIDVQNR, peptide start residue: 149)",-0.442
7,"UniProt P16858 (peptide sequence: VVDLMAYMASKE, peptide start residue: 322)",0.131
8,"UniProt P31809 (peptide sequence: ATETVYSEVK, peptide start residue: 509)",-0.0817
9,"UniProt P26450 (peptide sequence: IMHNHDKLK, peptide start residue: 524)",1.06
10,"UniProt P16054 (peptide sequence: SAPTSPCDQELK, peptide start residue: 346)",-0.275
11,"UniProt P20108 (peptide sequence: EYFEKVHQ, peptide start residue: 250)",-0.188
12,"UniProt P28654 (peptide sequence: VPAGLAQHK, peptide start residue: 279)",-0.244
13,"UniProt P28665 (peptide sequence: HVAYAVYSLSK, peptide start residue: 436)",0.775
14,"UniProt P23950 (peptide sequence: QPGSGQVNSSR, peptide start residue: 104)",-0.2
15,"UniProt P30993 (peptide sequence: TFTPSTTDTSTR, peptide start residue: 335)",-0.149

# 2 neighbouring records from above:
row,Target,log2 fold change
3,"UniProt P35279 (peptide sequence: SLIPSYIR, peptide start residue: 77)",-0.101
4,"UniProt P33766 (peptide sequence: LIHSLPASLER, peptide start residue: 323)",0.092
